Here are results for six substances from patent US10550155B2 (priority 2018, dated 2020).

Strings that start with PEPTIDE1 are HELM notation: dots part the residues, brackets hold end groups and non-standard residues.

A short description of this data set: general procedure: Fmoc solid-phase peptide synthesis; Rink amide MBHA resin (Novabiochem, 0.51 mmol/g). Conditions: whole synthesis.
For “PEPTIDE1{F.L.S.G.I.V.G.M.L.[dA].K.L.F.[am]}$$$$V2.0”, the isolated yield is 81.68%.

“PEPTIDE1{F.L.S.[dA].I.V.[dA].M.L.[dA].K.L.F.[am]}$$$$V2.0”: the isolated yield amounted to 27.93%.

As to “PEPTIDE1{F.L.S.[dA].I.V.G.M.L.G.K.L.F.[am]}$$$$V2.0”, the isolated yield was found to be 68.57%.

Consider “PEPTIDE1{F.L.S.[dA].I.V.[dA].M.L.G.K.L.F.[am]}$$$$V2.0”, for which the isolated yield is given as 80.29%.

For “PEPTIDE1{F.L.S.G.I.V.[dA].M.L.G.K.L.F.[am]}$$$$V2.0”, the isolated yield was 69.62%.

“PEPTIDE1{F.L.S.G.I.V.G.M.L.[dA].K.L.F.[am]}|PEPTIDE2{W.L.E.A.A.Y.Q.K.F.L}$PEPTIDE1,PEPTIDE2,11:R3-10:R2$$$V2.0” returned an isolated yield of 13.1%.
